These results are taken from PMC12000689.

Experiment [1] concerns the target T1, ATP9A (UniProt O75110).
T1 sequence: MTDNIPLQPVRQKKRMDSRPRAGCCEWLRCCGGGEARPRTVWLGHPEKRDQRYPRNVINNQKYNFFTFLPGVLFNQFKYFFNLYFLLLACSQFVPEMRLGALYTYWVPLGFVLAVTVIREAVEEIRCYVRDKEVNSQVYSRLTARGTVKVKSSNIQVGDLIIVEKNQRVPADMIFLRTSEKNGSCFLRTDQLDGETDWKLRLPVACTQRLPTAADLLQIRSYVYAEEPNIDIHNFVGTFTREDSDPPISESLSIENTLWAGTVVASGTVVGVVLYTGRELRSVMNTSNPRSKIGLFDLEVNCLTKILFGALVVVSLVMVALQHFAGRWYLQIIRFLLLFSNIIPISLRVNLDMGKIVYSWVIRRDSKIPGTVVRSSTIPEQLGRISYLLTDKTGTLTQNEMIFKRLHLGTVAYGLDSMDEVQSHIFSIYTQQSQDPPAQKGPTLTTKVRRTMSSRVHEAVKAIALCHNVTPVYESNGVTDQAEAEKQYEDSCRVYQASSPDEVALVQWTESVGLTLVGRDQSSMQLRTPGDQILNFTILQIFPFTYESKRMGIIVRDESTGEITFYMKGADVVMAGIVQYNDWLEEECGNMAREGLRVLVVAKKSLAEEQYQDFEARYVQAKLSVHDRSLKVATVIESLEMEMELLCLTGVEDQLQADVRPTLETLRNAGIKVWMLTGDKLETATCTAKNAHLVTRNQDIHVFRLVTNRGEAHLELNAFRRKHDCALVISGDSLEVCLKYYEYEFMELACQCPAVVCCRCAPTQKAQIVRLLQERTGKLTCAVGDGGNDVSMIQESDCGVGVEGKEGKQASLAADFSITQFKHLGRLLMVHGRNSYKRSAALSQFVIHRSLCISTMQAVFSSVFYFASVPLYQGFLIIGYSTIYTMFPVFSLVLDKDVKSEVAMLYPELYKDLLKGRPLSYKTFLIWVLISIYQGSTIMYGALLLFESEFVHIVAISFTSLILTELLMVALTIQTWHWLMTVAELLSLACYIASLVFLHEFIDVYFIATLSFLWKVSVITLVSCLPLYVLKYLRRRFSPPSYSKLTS
The experiment in a line: co-IP; lysates of HeLa cells stably coexpressing an HA-tagged and a FLAG-tagged P4-ATPase; lysis in 20 mM Hepes pH 7.4, 150 mM NaCl, 1 mM EDTA, 1% Nonidet P-40, 4°C; anti-HA antibody and protein G Dynabeads; blot with anti-HA and anti-DYKDDDDK

Experiment [2] concerns the target T2, ATP9B (UniProt O43861).
T2 sequence: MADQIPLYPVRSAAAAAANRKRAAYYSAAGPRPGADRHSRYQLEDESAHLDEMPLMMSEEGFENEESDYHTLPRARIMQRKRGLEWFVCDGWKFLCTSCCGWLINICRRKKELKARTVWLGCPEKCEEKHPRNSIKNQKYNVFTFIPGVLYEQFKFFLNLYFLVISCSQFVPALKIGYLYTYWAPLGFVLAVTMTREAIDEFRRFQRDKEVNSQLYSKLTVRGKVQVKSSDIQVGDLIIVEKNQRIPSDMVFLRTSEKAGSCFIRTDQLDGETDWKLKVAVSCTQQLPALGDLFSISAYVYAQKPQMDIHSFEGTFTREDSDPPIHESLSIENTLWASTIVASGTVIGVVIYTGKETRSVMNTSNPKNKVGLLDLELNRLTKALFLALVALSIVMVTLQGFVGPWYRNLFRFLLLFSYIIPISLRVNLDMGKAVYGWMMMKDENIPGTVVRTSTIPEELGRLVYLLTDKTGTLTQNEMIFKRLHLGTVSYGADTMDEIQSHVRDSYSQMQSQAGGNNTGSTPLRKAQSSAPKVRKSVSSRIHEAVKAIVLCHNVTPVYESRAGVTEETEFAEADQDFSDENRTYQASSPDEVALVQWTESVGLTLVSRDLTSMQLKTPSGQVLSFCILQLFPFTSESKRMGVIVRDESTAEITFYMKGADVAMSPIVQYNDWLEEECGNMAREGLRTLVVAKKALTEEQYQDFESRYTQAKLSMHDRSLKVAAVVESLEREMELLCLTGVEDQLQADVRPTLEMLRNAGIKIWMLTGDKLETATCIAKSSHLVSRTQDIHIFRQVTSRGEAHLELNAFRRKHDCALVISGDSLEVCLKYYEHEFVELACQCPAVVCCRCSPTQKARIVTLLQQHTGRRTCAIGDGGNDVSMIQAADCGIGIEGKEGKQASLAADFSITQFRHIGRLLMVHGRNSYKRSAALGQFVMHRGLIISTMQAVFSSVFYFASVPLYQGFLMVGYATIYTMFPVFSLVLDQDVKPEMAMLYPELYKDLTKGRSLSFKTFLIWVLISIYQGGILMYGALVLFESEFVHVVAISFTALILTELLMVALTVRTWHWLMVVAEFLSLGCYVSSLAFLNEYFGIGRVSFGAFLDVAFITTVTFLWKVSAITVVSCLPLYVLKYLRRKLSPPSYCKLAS
The description is as above.

Where a chain is given by its changes, count along the chain named. Names may count otherwise. No constants are given. Whether binding was seen depends on the method and setting. Binding seen in cells or lysates may run through a third protein. Some entries that bind do so weakly or less than the wild type.

B1: ATP11C (protein, UniProt Q8NB49 1-1132)
chain: MQMVPSLPPASECAGEEKRVGTRTVFVGNHPVSETEAYIAQRFCDNRIVSSKYTLWNFLPKNLFEQFRRIANFYFLIIFLVQVTVDTPTSPVTSGLPLFFVITVTAIKQGYEDCLRHRADNEVNKSTVYIIENAKRVRKESEKIKVGDVVEVQADETFPCDLILLSSCTTDGTCYVTTASLDGESNCKTHYAVRDTIALCTAESIDTLRAAIECEQPQPDLYKFVGRINIYSNSLEAVARSLGPENLLLKGATLKNTEKIYGVAVYTGMETKMALNYQGKSQKRSAVEKSINAFLIVYLFILLTKAAVCTTLKYVWQSTPYNDEPWYNQKTQKERETLKVLKMFTDFLSFMVLFNFIIPVSMYVTVEMQKFLGSFFISWDKDFYDEEINEGALVNTSDLNEELGQVDYVFTDKTGTLTENSMEFIECCIDGHKYKGVTQEVDGLSQTDGTLTYFDKVDKNREELFLRALCLCHTVEIKTNDAVDGATESAELTYISSSPDEIALVKGAKRYGFTFLGNRNGYMRVENQRKEIEEYELLHTLNFDAVRRRMSVIVKTQEGDILLFCKGADSAVFPRVQNHEIELTKVHVERNAMDGYRTLCVAFKEIAPDDYERINRQLIEAKMALQDREEKMEKVFDDIETNMNLIGATAVEDKLQDQAAETIEALHAAGLKVWVLTGDKMETAKSTCYACRLFQTNTELLELTTKTIEESERKEDRLHELLIEYRKKLLHEFPKSTRSFKKAWTEHQEYGLIIDGSTLSLILNSSQDSSSNNYKSIFLQICMKCTAVLCCRMAPLQKAQIVRMVKNLKGSPITLSIGDGANDVSMILESHVGIGIKGKEGRQAARNSDYSVPKFKHLKKLLLAHGHLYYVRIAHLVQYFFYKNLCFILPQFLYQFFCGFSQQPLYDAAYLTMYNICFTSLPILAYSLLEQHINIDTLTSDPRLYMKISGNAMLQLGPFLYWTFLAAFEGTVFFFGTYFLFQTASLEENGKVYGNWTFGTIVFTVLVFTVTLKLALDTRFWTWINHFVIWGSLAFYVFFSFFWGGIIWPFLKQQRMYFVFAQMLSSVSTWLAIILLIFISLFPEILLIVLKNVRRRSARRNLSCRRASDSLSARPSVRPLLLRTFSDESNVL
On to B1, for which the binding entry in experiment [1] and in experiment [2] was “no binding” in each case.

B2: ATP9A(E195Q) (protein, UniProt O75110 1-1047)
chain: T1 sequence with E195Q
For B2, the binding result in experiment [1] and in experiment [2] was “binds” in each case.

B3: ATP9B(E272Q) (protein, UniProt O43861 1-1147)
chain: T2 sequence with E272Q
As for B3, the binding entry in experiment [1] and in experiment [2] was “binds” in each case.
